This is one part of the list.
test system: T1, CTL2-GFP (C. trachomatis L2/434/Bu, GFP-expressing); set-up: species or system HeLa; Intracellular C. trachomatis growth in HeLa cells, bulk GFP fluorescence relative to DMSO; details: bulk GFP, single well; 28.5 h, 10 µM; inhibitor
T1 construct: L2/434/Bu, GFP-expressing

Row | Compound | % of control remaining [%]
1 | CC(=O)Nc1ccc(CN2CCC[C@H]2c2nc(-c3ccnc(NS(C)(=O)=O)c3)no2)cc1 [CBK288888] | 111.489
2 | O=C1CC(c2nc3ccccc3n2CCc2ccccc2)CN1c1ccccc1 (centres unmarked) [CBK266311] | 144.167
3 | Sc1nnc(-c2ccncc2)n1/N=C/c1c[nH]c2ccccc12 [CBK265272] | 100
4 | COc1ccc(S(=O)(=O)N(C)c2ccc(C(=O)NCc3ccccn3)cc2)cc1 [CBK269099] | 167.923
5 | CC(C)C(=O)N1CC2(CCN(Cc3nc4ccccc4s3)CC2)c2ccccc21 [CBK136980] | 95.3557
6 | Cc1cc(Cl)ccc1CNC(=O)c1ccc(-c2ccoc2)nc1 [CBK156254] | 115.705
7 | COc1cncc(-c2cncc(N[C@H](CO)C(C)C)n2)c1 [CBK065329] | 135.637
8 | Cc1ccc(OC(C)C(=O)NCc2ccccc2)cc1 (centres unmarked) [CBK269016] | 162.457
9 | Cn1c2c(c(=O)n(C)c1=O)CN(CCN1CCNCC1)CN2 [CBK265218] | 100
10 | Cc1cc(NC(=O)c2cccc(Br)c2)nc2c1c(=O)oc1ccccc12 [CBK291238] | 146.175
11 | CC(C)C(CNCc1ccc(F)c(Cl)c1)c1ccnn1C (centres unmarked) [CBK305130] | 95.2002
12 | Cc1nc(CN2CCN(CCc3ccccc3)CC2)cs1 [CBK126457] | 103.722
13 | CCN1CCN(C2CCN(Cc3ccccc3[N+](=O)[O-])CC2)CC1 [CBK264631G] | 100
14 | O=C(Nc1cccc(Cn2cccn2)c1)c1csc2ccccc12 [CBK268123] | 125.887
15 | COc1cccc(Cc2c(C)nc3c(C(=O)NCCCN4CCCC4=O)cnn3c2C)c1 [CBK162055] | 144.616
16 | Cc1cc(Cl)ccc1CNC(=O)c1ccccc1Nc1cccc(C(F)(F)F)c1 [CBK149544] | 96.2933
17 | O=C(CCCn1cccn1)N1CCCN(Cc2ccc(F)cc2)CC1 [CBK304641] | 115.318
18 | COc1ncc(-c2cnc3[nH]c(=O)n(C4CC4)c3n2)cn1 [CBK064908] | 226.479
19 | CCc1onc(C)c1C(=O)NCC1CCCCN1CC(C)C (centres unmarked) [CBK305124] | 123.307
20 | Cc1nn(-c2cccc(Br)c2)c(C)c1[C@@H]1C=C[C@@H](NS(C)(=O)=O)C1 [CBK288806] | 160.142
21 | O=C(O)/C(O)=C/C(=O)c1ccc(F)cc1 [CBK261844] | 109.067

Row | Compound | % of control remaining [%]
22 | Cc1cccc(OCCNC(=O)CN2CCCC2c2cnn(C)c2)c1 (centres unmarked) [CBK305826] | 153.297
23 | O=C(Nc1ccncc1)OCCc1cccnc1 [CBK200125] | 112.386
24 | Cc1ccc(Cl)cc1NC(=N)NC(=N)N [CBK268049] | 131.077
25 | Cc1cc(C)nc(NC2=NC3CCCCC3N2C(=O)Nc2ccc(Cl)c(Cl)c2)n1 (centres unmarked) [CBK266458] | 109.383
26 | O=C(CSc1nnc(COc2ccccc2)n1-c1ccccc1)c1cccs1 [CBK265133] | 118.18
27 | CCn1c(CN(C)Cc2cc(C)[nH]n2)nc2ccccc21 [CBK282120] | 119.52
28 | Cc1ccc(SCCNS(=O)(=O)c2cccc([N+](=O)[O-])c2)cc1 [CBK267508] | 133.161
29 | Cn1c(-c2ccccc2)cnc1NC(=O)CC1CCN(C(=O)Cc2ccccc2)CC1 [CBK285966] | 112.17
30 | O=C(O)c1ccc(-n2ccnc2)c(C#Cc2ccccc2)c1 [CBK284502] | 126.352
31 | Oc1ccc(-n2cc(-c3ccc(F)cc3)nn2)cc1 [CBK113126] | 121.88
32 | CCC1CN(C(=O)Cn2cnc3ccc(F)cc3c2=O)CCO1 (centres unmarked) [CBK305795] | 126.551
33 | O=C(Nc1ccc(Oc2ccccc2)cc1)c1cc([N+](=O)[O-])cc2cn[nH]c12 [CBK293985] | 134.136
34 | Cc1ccc(N2C(=O)CC(Sc3ncccc3C(=O)O)C2=O)cc1 (centres unmarked) [CBK287761] | 101.802
35 | Nc1nc(N)n(-c2ccccc2)n1 [CBK026515] | 94.2865
36 | CN(c1ncccc1CNC(=O)c1cccnc1)C1CCCCC1 [CBK306555] | 125.997
37 | CC(C)C[C@@H]1N[C@H](C(=O)NCCN(C)C)Cc2c[nH]c3cccc1c23 [CBK289417] | 136.867
38 | COc1ccc(-c2nn(CCC#N)cc2C(=O)N2CCCCC2)cc1 [CBK305834] | 107.992
39 | CCc1ccc(C2CC(=O)c3c(ccc4ccccc34)N2)cc1 (centres unmarked) [CBK098787] | 100.17
40 | CCCn1cnc2c1CN(C(C)=O)[C@H](C(=O)OC)C2 [CBK288995] | 128.875
41 | COCCNc1nc(-c2cc(OC)c(OC)c(OC)c2)cnc1N [CBK063559] | 132.516

Compounds above that have bromine (two):
Row | Compound | % of control remaining [%]
10 | Cc1cc(NC(=O)c2cccc(Br)c2)nc2c1c(=O)oc1ccccc12 [CBK291238] | 146.175
20 | Cc1nn(-c2cccc(Br)c2)c(C)c1[C@@H]1C=C[C@@H](NS(C)(=O)=O)C1 [CBK288806] | 160.142

Reference: article PMC12040169 (PLOS Biology, 2025)
